Some results were stated once for a whole list of compounds, not compound by compound.
System: Anopheles stephensi (Indian malaria mosquito)
Assay: Example B13: activity against Anopheles stephensi, dry deposit in tissue culture plates
Assay type: in vivo
Details: application rate of 200 ppm in ethanol; adult females; after 48 h and/or 24 h

| Compound | control of Anopheles stephensi |
| --- | --- |
| CCS(=O)(=O)c1cc(C2CC2)cnc1-c1nc2cc(C(F)(F)F)cnc2n1C [Compound P4, 2-(5-cyclopropyl-3-ethylsulfonyl-2-pyridyl)-3-methyl-6-(trifluoromethyl) imidazo[4,5-b]pyridine] | at least 80% |
| CCS(=O)(=O)c1cc(C2(C#N)CC2)cnc1-c1nc2cc(C(F)(F)F)cnc2n1C [Compound P9, 1-[5-ethylsulfonyl-6-[3-methyl-6-(trifluoromethyl)imidazo[4,5-b]pyridin-2-yl]-3-pyridyl]cyclopropanecarbonitrile] | at least 80% |
| CCS(=O)(=O)c1cc(C2(C#N)CC2)cnc1-c1nc2cc(SC(F)(F)F)cnc2n1C [Compound P13, 1-[5-ethylsulfonyl-6-[3-methyl-6-(trifluoro-methylsulfanyl)imidazo[4,5-b]pyridin-2-yl]-3-pyridyl]cyclopropanecarbonitrile] | at least 80% |

From patent US11072608B2, “Pesticidally active heterocyclic derivatives with sulphur containing substituents” (SYNGENTA PARTICIPATIONS AG, priority 2014, dated 2021)
